Measurements: patent US11820729B2 (Johnson & Johnson Consumer Inc., priority 2014, dated 2023)
Some results were stated once for a whole list of compounds, not compound by compound. At least one structure is not confirmed: it was looked up by name or label, or the drawing left a doubt.

Assay: HPLC quantification of compound remaining after storage at 50° C.
Type: physicochemical
Details: storage at 50° C. for 4 and 8 weeks (Table 13 formulas)
Protocol: Briefly, formulations containing either LAE or any of the 26 compounds and standards are diluted into a solution of 50% acetonitrile and 50% water. They are evaluated on an Agilent HPLC using a Zorbax ion exchange column. In the method, 10 uL of the sample is withdrawn and ran through the HPLC with a 40% potassium phosphate (molarity at pH 3.0) 60% acetonitrile mobile phase. […] The molecule peak is auto integrated using the Online Agilent HPLC software. Comparisons are made to the standard to identify the % of compound remaining following storage.

| Structure (SMILES) | structural stability via HPLC in simple solution formulations |
| --- | --- |
| CCCCCCCCCCCC(=O)NC(CCCNC(=N)N)C(=O)NCCCCCC (centres unmarked) [Compound 5, [amino({[4-dodecanamido-4-(hexylcarbamoyl)butyl]amino})methylidene]azanium] | Stable |
| CCCCCCCCCCCCCCCCCC(=O)NC(CCCNC(=N)N)C(=O)NC (centres unmarked) [Compound 7] | Stable |
| CCCCCCCC(=O)NC(CCCNC(=N)N)C(=O)NC (centres unmarked) [Compound 1, [amino({[4-(methylcarbamoyl)-4-octanamidobutyl]amino})methylidene]azanium] | Stable |
| CCCCCCCC(=O)NC(CCCNC(=N)N)C(=O)NCCCCCC (centres unmarked) [Compound 3, [amino({[4-(hexylcarbamoyl)-4-octanamidobutyl]amino})methylidene]azanium] | Stable |
| CCCCCCCCCCCC(=O)NC(CCCNC(=N)N)C(=O)NC (centres unmarked) [Compound 6] | Stable |
| CCCCCCCCCCCC(=O)NC(CN)C(=O)NCC (centres unmarked) [Compound 13, N-[2-amino-1-(ethylcarbamoyl)ethyl]dodecanamide] | Stable |
| CCCCCCCCCCCC(=O)NC(CCCNC(=N)N)C(=O)NCC (centres unmarked) [Compound 9, [amino({[4-dodecanamido-4-(ethylcarbamoyl)butyl]amino})methylidene]azanium] | Stable |
| CCCCCCCCCCCCCCCCCC(=O)NC(CCCNC(=N)N)C(=O)NCC (centres unmarked) [Compound 10, [amino({[5-dodecanamido-5-(ethylcarbamoyl)pentyl]amino})methylidene]azanium] | Stable |
